The results are deposited in PubChem (AID912; NCATS, 2007).

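Uptake of anthrax lethal toxin into cultured cells, read by FRET (460/530 nm ratio) and reported from the 460 nm channel; the cell line is not named here.
Each compound was tested as a concentration series from about 0.0005 to 40 µM.
The number is the fitted AC50 of the 460 nm signal alone; lower values mean a more potent effect. A falling signal goes with compounds filed as inhibitors or cytotoxic, a rising one with activators or fluorescent compounds (inferred from the filed classes).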

Values are in µM.
Common to all entries: measured here: 460 nm channel.
Part of the compounds only, not a random draw; the main read-out is not listed here.
Potencies fitted to partial, single-point or poorly fitting curves are rough.
The first word of each remark tells which way the curve ran; it can be opposite to the aim of the assay.

structure | AC50 (µM) | remark
CCn1nnc(NC(=O)c2cccc(-c3cc4ccccc4oc3=O)c2)n1 | 19.95 | rising, partial curve
Cc1cc(Nc2ccc(N=Nc3ccc(O)c4ncccc34)cc2)nc(C)n1 | 0.5012 | falling, full curve
[O-][n+]1c(CN2CCCCC2)nc2cccc3c2c1-c1ccccc1-3 | 5.012 | rising, single point
COc1ccc(-n2nnnc2Sc2ccc(S(=O)(=O)N3CCOCC3)cn2)cc1 | 3.981 | rising, partial curve
CCCCC(=O)Nc1ccc(N2CCN(C(=O)CC)CC2)cc1 | 0.2512 | rising, single point
COc1ccc(Oc2ncc3nc(C)c(=O)n(Cc4cccc(OC)c4)c3n2)cc1 | 6.31 | rising, full curve
Cc1nc(SCc2cccc(F)c2)[nH]c(=O)c1C#N | 0.1995 | rising, full curve
CN(C)S(=O)(=O)N1CCN(CC(O)COc2ccc3cc(Br)ccc3c2)CC1 (stereo unspecified) | 12.59 | falling, partial curve
CC1CCCN(Cc2nc3c(c(=O)n(C)c(=O)n3C)n2Cc2c(F)cccc2Cl)C1 (stereo unspecified) | 2.512 | falling, full curve
CCCn1c(=O)c2[nH]c(-c3ccc(OCC(=O)Nc4ccc(C(C)=O)cc4)cc3)nc2n(CCC)c1=O | 12.59 | falling, partial curve
O=C1N(CN2CCN(c3cccc(Cl)c3)CC2)c2ccccc2C12OCCCO2 | 3.981 | falling, partial curve, poor fit
COc1ccc(Cl)cc1C(=O)N(Cc1nc(-c2cccc(C)c2)no1)C(C)C | 12.59 | falling, partial curve
COc1ccc2nc(NC(=O)C3CCCN(S(=O)(=O)c4cccs4)C3)sc2c1 (stereo unspecified) | 31.62 | falling, single point
CCCCn1c(SCc2c(C)noc2C)nc2cc(S(N)(=O)=O)ccc21 | 12.59 | rising, single point
CC(=O)Nc1ccc(OCC(O)CN2CCN(c3cc(Cl)ccc3C)CC2)cc1 (stereo unspecified) | 31.62 | falling, single point
Cc1cc(OCC(=O)Nc2c(C)n(C)n(-c3ccccc3)c2=O)c2c3c(c(=O)oc2c1)CCC3 | 10 | rising, single point
COc1cccc(C(c2nnnn2Cc2ccco2)N2CCN(c3cccc(C)c3C)CC2)c1OC (stereo unspecified) | 12.59 | falling, single point
COC(=O)c1ccc(C(=O)OC)c(NS(=O)(=O)c2ccc(NC(C)=O)cc2)c1 | 12.59 | rising, single point
c1ccc(CCNc2ncnc3c2nnn3Cc2ccccc2)cc1 | 3.981 | falling, single point
Cc1cc(C)c2nc(N3CCCN(C(=O)c4ccco4)CC3)c(C#N)cc2c1 | 3.981 | rising, full curve
CN(Cc1ccco1)C(=O)c1ccc(N2CCCC2=O)cc1 | 5.012 | rising, single point
C=CCn1c(SCCCc2ccccc2)nc2c1c(=O)[nH]c(=O)n2C | 31.62 | falling, partial curve
Cc1ccnc(N2CCC(C(=O)NCc3ccc4c(c3)OCO4)CC2)n1 | 25.12 | rising, single point
Cc1ccc(-c2nc(-c3ccccc3)no2)c(Cl)c1 | 15.85 | falling, partial curve
Oc1ccccc1-c1cc(C(F)(F)C(F)F)nc(-c2ccccc2)n1 | 15.85 | falling, partial curve
N#Cc1ccc(CN2CCC3(CC2)CCN(C(=O)c2cnccn2)CC3)cc1 | 7.943 | falling, partial curve
CCC(=O)N1CCc2cc(S(=O)(=O)NCCC(=O)N3CCN(Cc4ccccc4)CC3)ccc21 | 0.003981 | falling, full curve, poor fit
CC(C)Cn1c(N)c(S(=O)(=O)c2cccs2)c2nc3ccccc3nc21 | 5.012 | rising, partial curve, poor fit
CCc1c(C)c2ccc(OCC(=O)OC)cc2oc1=O | 12.59 | rising, partial curve
O=C(O)c1cc(S(=O)(=O)Nc2ccc3oc(=O)sc3c2)ccc1O | 10 | falling, partial curve, poor fit
CCNc1ncc2nc(C)c(=O)n(Cc3cccc(OC)c3)c2n1 | 19.95 | rising, partial curve
CCCCOC(=O)C1[C@H]2C(=O)N(c3ccccc3CC)C[C@]23C=C[C@H]1O3 (stereo partly specified) | 25.12 | falling, single point
CCOC(=O)C1=C(C)NC(=O)NC1c1cn(-c2ccccc2)nc1-c1cccs1 (stereo unspecified) | 0.7943 | rising, full curve, poor fit
CCn1c(SCC#N)nc2c(c1=O)C1(CCCC1)Cc1ccccc1-2 | 7.943 | falling, partial curve
CC(=O)c1cc2c(cc1N)OCO2 | 0.02512 | falling, full curve, poor fit
CC(C)N(CCNC(=O)C1CCC(=O)N1Cc1ccc(F)cc1)Cc1ccccc1 (stereo unspecified) | 0.5012 | falling, partial curve
Clc1ccc(C=Nc2ccc3c(c2)Cc2ccccc2-3)c(Cl)c1 | 1 | rising, single point
COc1cc(N)c(Cl)cc1C(=O)CCC1CCN(CCNS(C)(=O)=O)CC1 | 0.001259 | rising, full curve, poor fit
CCN1CCN(Cc2ccc(NC(=O)Nc3ccccc3OC)cc2)CC1 | 15.85 | falling, single point
C=C1CC[C@H]2C(C)(C)[C@H](O)CC[C@]2(C)[C@@H]1COc1ccc2ccc(=O)oc2c1 | 25.12 | falling, partial curve
CN(C)c1ccc(C(=C2C=CC(=[N+](C)C)C=C2)c2ccccc2)cc1 | 0.7943 | falling, full curve

The last 4 entries again:

| structure | AC50 (µM) | remark |
|---|---|---|
| `COc1cc(N)c(Cl)cc1C(=O)CCC1CCN(CCNS(C)(=O)=O)CC1` | 0.001259 | rising, full curve, poor fit |
| `CCN1CCN(Cc2ccc(NC(=O)Nc3ccccc3OC)cc2)CC1` | 15.85 | falling, single point |
| `C=C1CC[C@H]2C(C)(C)[C@H](O)CC[C@]2(C)[C@@H]1COc1ccc2ccc(=O)oc2c1` | 25.12 | falling, partial curve |
| `CN(C)c1ccc(C(=C2C=CC(=[N+](C)C)C=C2)c2ccccc2)cc1` | 0.7943 | falling, full curve |